Laboratory results taken from patent publication US20150038435A1 (Novo Nordisk A/S, priority 2012, published 2015).

Experiment: general procedure: Fmoc solid-phase peptide synthesis; 2-Chlorotrityl resin 100-200 mesh 1.7 mmol/g; TCTU / N,N-diisopropylethylamine
Settings: whole synthesis, ELSD, scale of the general procedure 2.31 g resin, 3.93 mmol, first Fmoc amino acid 2.62 mmol

Point of comparison: N-tetradecanoyl-βAla-βAla-Pro-Phe-OH, “purity (crude or final not stated)” value 100%. Against it:
- N-tetradecandioyl-Ala-Ala-Pro-Phe-OH — the same, 100%
- N-tetradecanoyl-Leu-Ala-Ala-Pro-Tyr-OH — the same, 100%
- N-dodecanoyl-Ala-Ala-Pro-Phe-OH — the same, 100%
- N-dodecanoyl-γGlu-OEG-Pro-Arg-OH — the same, 100%
- N-tetradecanoyl-γGlu-OEG-Ala-Ala-Pro-Phe-OH — lower, 96%
- N-tetradecanoyl-Glu-Ala-Pro-Phe-OH — the same, 100%
- N-hexadecanoyl-Thr-Ala-Ala-Pro-Phe-OH — lower, 96%
- N-hexadecanoyl-Ala-Ala-Pro-D-Phe-OH — the same, 100%
- N-tetradecanoyl-Ala-Ala-Ala-Ala-Pro-Phe-OH — lower, 98%
- Ala-Ala-Pro-Phe-OH — the same, 100%
- N-tetradecanoyl-bAsp-Ala-Pro-Phe-OH — the same, 100%
- N-dodecanoyl-Ala-Ala-Ala-Ala-Ala-Pro-Phe-OH — lower, 98%
- N-tetradecanoyl-His-Ala-Trp-Pro-Phe-OH — the same, 100%
- N-tetradecanoyl-bAsp-Ala-Ala-Pro-Phe-OH — the same, 100%
- N-tetradecanoyl-Lys-Ala-Arg-Pro-Phe-OH — lower, 95%
- N-tetradecanoyl-Glu-Ala-Ala-Pro-Phe-OH — the same, 100%
- N-dodecanoyl-Ala-Ala-Pro-Leu-OH — the same, 100%
- N-octadecanoyl-γGlu-Ala-Pro-Phe-OH — the same, 100%
- N-tetradecanoyl-γGlu-βAla-βAla-Pro-Phe-OH — the same, 100%
- N-dodecanoyl-Leu-Thr-Trp-Pro-Tyr-OH — lower, 95%
- N-tetradecanoyl-Glu-Ala-Ala-Pro-Trp-OH — the same, 100%
- N-dodecanoyl-γGlu-OEG-OEG-DArg-OH — the same, 100%
- N-octadecanoyl-γGlu-Ala-Ala-Pro-Phe-OH — the same, 100%
- N-tetradecanoyl-Thr-Ala-Ala-Pro-Phe-OH — lower, 95%
- N-dodecanoyl-βAla-Ala-Pro-Phe-OH — lower, 99%
- N-dodecanoyl-βAla-βAla-Pro-Phe-Pro-OH — lower, 98%
- N-dodecanoyl-γGlu-Ala-Ala-Pro-Phe-OH — lower, 95%
- N-dodecanoyl-Aib-Aib-Pro-Phe-OH — the same, 100%
- N-tetradecanoyl-βAla-βAla-βAla-βAla-Pro-Phe-OH — lower, 98%
- N-hexadecanoyl-γGlu-OEG-Ala-Ala-Pro-Phe-OH — lower, 98%
- N-tetradecanoyl-γGlu-Ala-Arg-Pro-Phe-OH — the same, 100%
- N-dodecanoyl-γGlu-His-Ala-Ala-Pro-Tyr-OH — the same, 100%
- N-dodecanoyl-Ala-Ala-Pro-DPhe-OH — the same, 100%
- PEG12-Ala-Ala-Pro-Phe-OH — the same, 100%
- N-tetradecanoyl-βAla-Ala-Pro-Phe-OH — the same, 100%
- N-tetradecanoyl-His-Ala-Arg-Pro-Phe-OH — the same, 100%
- N-hexadecanoyl-γGlu-Ala-Pro-Phe-OH — the same, 100%
- N-tetradecanoyl-Arg-Ala-Ala-Pro-Phe-OH — the same, 100%
- N-tetradecanoy-γGlu-His-Ala-Ala-Pro-Tyr-OH — the same, 100%
- N-tetradecanoyl-βAla-βAla-βAla-Pro-Phe-OH — the same, 100%
- N-tetradecanoyl-Ala-Ala-Pro-DPhe-OH — the same, 100%
- N-icosanoyl-γGlu-Ala-Pro-Phe-OH — the same, 100%
- N-dodecandioyl-Ala-Ala-Pro-Phe-OH — the same, 100%
- N-tetradecanoyl-Arg-Pro-Leu-bAla-Ala-Pro-D-Phe-OH — lower, 97%
- N-icosanoyl-γGlu-Ala-Ala-Pro-Phe-OH — the same, 100%
- N-tetradecanoyl-Glu-Ala-Ala-Pro-D-Phe-OH — the same, 100%
- N-dodecanoyl-OEG-OEG-Phe-OEG-OH — the same, 100%
- N-tetradecanoyl-Ala-Ala-Pro-Phe-OH — lower, 97%
- N-octadecanoyl-Ala-Ala-Pro-Phe-OH — the same, 100%
- N-tetradecanoyl-Leu-betaAla-Ala-Pro-DPhe-OH — lower, 97%
- N-tetradecanoyl-Thr-Ala-Ala-Pro-Tyr-OH — lower, 96%
- N-dodecanoyl-DAla-DAla-DPro-DPhe-OH — the same, 100%
- N-tetradecanoyl-His-Ala-Ala-Pro-Phe-OH — the same, 100%
- N-dodecanoyl-γGlu-OEG-OEG-Arg-OH — the same, 100%
- N-dodecanoyl-OEG-OEG-DPhe-OEG-OH — the same, 100%
- N-dodecanoyl-βAla-βAla-Pro-Phe-OH — the same, 100%
- N-dodecanoyl-γGlu-OEG-Ala-Ala-Pro-Phe-OH — lower, 95%
- N-eicosanoyl-Ala-Ala-Pro-Phe-OH — the same, 100%

Same assay, conditions: whole synthesis, ELSD, scale of the general procedure 2.31 g resin, 3.93 mmol, first Fmoc amino acid 2.62 mmol; run 1

Point of comparison: N-hexadecanoyl-Glu-Ala-Ala-Pro-D-Phe-OH, “purity (crude or final not stated)” value 98%. Against it:
- N-hexadecanoyl-γGlu-Ala-Ala-Pro-Phe-OH — higher, 100%

Same assay, conditions: whole synthesis, ELSD, scale of the general procedure 2.31 g resin, 3.93 mmol, first Fmoc amino acid 2.62 mmol; run 2

Point of comparison: N-hexadecanoyl-γGlu-Ala-Ala-Pro-Phe-OH, “purity (crude or final not stated)” value 98%. Against it:
- N-hexadecanoyl-Glu-Ala-Ala-Pro-D-Phe-OH — higher, 100%

Same assay, conditions: whole synthesis, LC-MS (ELSD), scale of the general procedure 2.31 g resin, 3.93 mmol, first Fmoc amino acid 2.62 mmol

Point of comparison: “N-tetradecanoyl-Arg-His-Ala-Arg-Pro-Phe-OH”, “purity (crude or final not stated)” value 100%. Against it:
- N-tetradecanoyl-D-His-D-Ala-D-Arg-D-Pro-D-Phe-OH — the same, 100%
- N-tetradecanoyl-γGlu-Ala-Pro-Phe-OH — lower, 99%
- N-tetradecanoyl-γGlu-Ala-Pro-D-Trp-OH — lower, 97%
- N-tetradecanoyl-eLys-His-Ala-Arg-Pro-Phe-OH — lower, 97%
- N-hexadecanoyl-γGlu-Ala-Ala-Pro-Phe-OH — lower, 98%
- N-dodecanoyl-Ala-Ala-Pro-His-OH — the same, 100%
- N-tetradecanoyl-γGlu-His-Ala-Arg-Pro-Phe-OH — the same, 100%
- N-icosanoyl-γGlu-Ala-Pro-Phe-OH — lower, 96%
- N-tetradecanoyl-γGlu-DAla-DPro-DPhe-OH — the same, 100%
- N-hexadecanoyl-γGlu-D-Ala-D-Ala-D-Pro-D-Phe-OH — the same, 100%
- N-tetradecanoyl-γGlu-γGlu-Phe-Phe-OH — lower, 99%
- N-tetradecanoyl-γGlu-D-Ala-D-Ala-D-Pro-D-Phe-OH — the same, 100%
- N-tetradecanoyl-γGlu-γGlu-Ala-Pro-Phe-OH — lower, 98%
- N-tetradecanoyl-γGlu-Ala-Pro-Trp-OH — the same, 100%
- N-tetradecanoyl-γGlu-Ala-Pro-D-Phe-OH — the same, 100%
- N-tetradecanoyl-γGlu-γGlu-Pro-Phe-OH — the same, 100%
